Values from PubChem BioAssay AID743454 (Peter MacCallum Cancer Centre, 2014)
Screen: 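Genes whose loss kills vorinostat-resistant colon cancer cells under vorinostat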 (primary screen). System: human HCT116-VR colon cancer cells, selected for vorinostat resistance. Knock-down reagent: siRNA pool against human genes, 40 nM siRNA pool. Time to read-out: vorinostat for 24 h, read-out about 72 h after transfection. Challenge: vorinostat at 2.5 µM final. Measured: 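Cell viability by CellTiter-Fluor and caspase 3/7 activity by luminescence, each scaled to mock wells per plate, duplicates averaged, then robust z-scored over all plates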. Direction: viability robust z-score: higher = more viable cells than screen typical; caspase robust z-score: higher = more caspase 3/7 activity than screen typical. Call rule: 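a knock-down is a hit when classed RV1 or RV2 for lowered viability, or CA1 or CA2 for caspase activation; those lethal without drug were dropped; hits were retested singly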.
The whole screen tested about 18,000 reagents; below is a part drawn at random. 450 of them (2.5%) were called active. 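Single biological run; no consistent viability z cut-off exists, so the class columns, not z-scores, define the calls.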 A number with no mark means an inactive call. No sequences are given here.

| target gene | viability hit class | caspase hit class | viability robust z-score | caspase robust z-score |
| --- | --- | --- | --- | --- |
| PDE6H (phosphodiesterase 6H) | no change | no change | 0.05 | -0.86 |
| SIPA1L2 (signal induced proliferation associated 1 like 2) | no change | no change | -0.34 | -0.78 |
| GLI4 (GLI family zinc finger 4) | no change | no change | 0.44 | 4.98 |
| DYNLL1 (dynein light chain LC8-type 1) | no change | no change | -0.16 | -0.39 |
| LARP4 (La ribonucleoprotein 4) | no change | no change | 1.21 | -0.22 |
| LINC02897 (long independently transcribed non-coding RNA 2897) | no change | no change | 0.06 | 2.52 |
| GAL (galanin and GMAP prepropeptide) | no change | no change | 0.86 | 0.15 |
| ZNF682 (zinc finger protein 682) | no change | no change | 0.9 | -0.76 |
| ZKSCAN2 (zinc finger with KRAB and SCAN domains 2) | no change | no change | 0.76 | -0.7 |
| L2HGDH (L-2-hydroxyglutarate dehydrogenase) | no change | no change | -1.92 | 0.73 |
| MCTP2 (multiple C2 and transmembrane domain containing 2) | no change | no change | 0.24 | 0.96 |
| ADAM7 (ADAM metallopeptidase domain 7) | no change | no change | 0.47 | -0.8 |
| KAT2B (lysine acetyltransferase 2B) | no change | no change | -0.81 | 0.7 |
| IGF2 (insulin like growth factor 2) | no change | no change | 1.8 | 0.33 |
| WSB2 (WD repeat and SOCS box containing 2) | no change | no change | 0.08 | 0.78 |
| SNRNP48 (small nuclear ribonucleoprotein U11/U12 subunit 48) | no change | no change | 0.28 | -0.14 |
| ALG8 (ALG8 alpha-1,3-glucosyltransferase) | no change | no change | 0.11 | 0.14 |
| TG (thyroglobulin) | no change | no change | 0.62 | 1.54 |
| GOLGA2 (golgin A2) | no change | no change | -0.75 | 1.54 |
| ATP2B4 (ATPase plasma membrane Ca2+ transporting 4) | no change | no change | 2.11 | -0.57 |
| GREB1 (growth regulating estrogen receptor binding 1) | no change | no change | -0.19 | -0.1 |
| SDC2 (syndecan 2) | no change | no change | -0.78 | 1.01 |
| CCDC68 (coiled-coil domain containing 68) | no change | no change | 2.06 | -0.53 |
| SPI1 (Spi-1 proto-oncogene) | no change | no change | -1.43 | -0.92 |
| CBX7 (chromobox 7) | no change (active) | CA1 (caspase activation) | 0.38 | 6.73 |
| ADGRE1 (adhesion G protein-coupled receptor E1) | no change | no change | 0.68 | -0.36 |
| FLRT3 (fibronectin leucine rich transmembrane protein 3) | no change | no change | 0.77 | 0.04 |
| CYP4A22 (cytochrome P450 family 4 subfamily A member 22) | no change | no change | -1.01 | 1.22 |
| ITCH (itchy E3 ubiquitin protein ligase) | no change | no change | -2.4 | -0.5 |
| STEAP2 (STEAP2 metalloreductase) | no change | no change | 0.44 | 0.13 |
| RBAKDN (RBAK downstream neighbor) | no change | no change | 0.32 | 0.38 |
| GNRHR (gonadotropin releasing hormone receptor) | no change | no change | 0.37 | -0.44 |
| MS4A6E (membrane spanning 4-domains A6E) | no change | no change | -1 | 2.94 |
| CDH26 (cadherin 26) | no change | no change | -0.26 | 3.08 |
| RNF216 (ring finger protein 216) | no change (active) | CA1 (caspase activation) | -1.71 | 7.5 |
| ASS1 (argininosuccinate synthase 1) | no change | no change | 1.49 | 0.67 |
| SCUBE3 (signal peptide, CUB domain and EGF like domain containing 3) | no change | no change | -0.43 | 0.44 |
| UCN3 (urocortin 3) | no change | no change | 2.8 | -0.14 |
| EP400 (E1A binding protein p400) | no change | no change | -0.48 | -0.78 |
| SCGB1C1 (secretoglobin family 1C member 1) | no change | no change | -1.19 | -0.43 |
| GPR45 (G protein-coupled receptor 45) | no change | no change | 0.2 | 0.29 |
| CCT6B (chaperonin containing TCP1 subunit 6B) | no change | no change | 0.82 | -0.28 |
| SMC3 (structural maintenance of chromosomes 3) | no change | no change | 0.64 | 2 |
| TKTL1 (transketolase like 1) | no change | no change | -0.97 | 0.97 |
| SAMD13 (sterile alpha motif domain containing 13) | no change | no change | -0.32 | -0.4 |
| AEBP2 (AE binding protein 2) | no change | no change | -0.23 | -0.88 |
| MANBAL (mannosidase beta like) | no change | no change | 0.4 | 0.97 |
| C4orf36 (chromosome 4 open reading frame 36) | no change | no change | -1.85 | 0.4 |
| CTBP2 (C-terminal binding protein 2) | no change | no change | 1.38 | 0.02 |
| FAM120B (family with sequence similarity 120 member B) | no change | no change | 1 | 1.04 |
| TIMM10B (translocase of inner mitochondrial membrane 10B) | no change | no change | -0.57 | 3.16 |
| MRPL55 (mitochondrial ribosomal protein L55) | no change | no change | 0.76 | -0.76 |
| TNNI3 (troponin I3, cardiac type) | no change | no change | 0.84 | -0.55 |
| UCMA (upper zone of growth plate and cartilage matrix associated) | no change | no change | 1.88 | 0.63 |
| GHDC (GH3 domain containing) | no change | no change | -0.9 | 4.2 |
| LRRC40 (leucine rich repeat containing 40) | no change | no change | -1.67 | 0.45 |
| FYB1 (FYN binding protein 1) | no change | no change | -1.04 | 0.52 |
